Laboratory results published in PubChem BioAssay AID1347076 (National Center for Advancing Translational Sciences (NCATS), 2019).
About 13,000 (3.2%) of roughly 400,000 compounds were called active. This list was built around the results that the source calls inconclusive (neither active nor inactive); the mix of calls is not that of the screen. Calls come from the whole dose curve; as a rule, active = well fitted cell-killing curve with a large enough effect; inconclusive = small, poorly fitted or top-dose-only effect, or effect the other way; inactive = flat fitted curve, though single readings scatter. A potency beside an inconclusive call is a rough fit, not a confirmed value.

Test: qHTS assay for MDR1-selective chemotherapeutics: Primary screen using the drug-selected MDR subline cells KB-V1; note: nearly all actives have a fitted effect of over 60% in size
Details: KB-V1 MDR cells viability, CellTiter-Glo, 72 h; activity change, negative = cytotoxicity: at 46.1 µM (top of the series)
Summary of the method: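 qHTS viability screen in drug-selected KB-V1 MDR cells: 72 h compound treatment at 37 degrees C, ATP luminescence end point.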
% is set by controls: 0 for no effect and ±100 for the full control effect; potency is the fitted concentration of half-maximal effect.

| Structure (SMILES) | Potency | activity change, negative = cytotoxicity |
| --- | --- | --- |
| CCC(C)NCCOCCOc1cc(C)c(Cl)c(C)c1 (stereo not given) | inconclusive: 10.3 µM [cytotoxic, partial curve, poor fit] |  |
| Cc1ccc(S(=O)(=O)CCC(=O)Nc2cccc(C)c2)cc1 | inconclusive: 29.1 µM [cytotoxic, single point] |  |
| Cn1nc(C(=O)Nc2ccc(S(=O)(=O)Nc3ncccn3)cc2)ccc1=O | inconclusive: 29.1 µM [rising, single point] |  |
| CCc1nc2ccc(C(=O)N(C)Cc3ccccc3)cn2c1N(C)CCCc1ccccc1 | inconclusive: 8.2 µM [cytotoxic, partial curve] |  |
| CCCCN(C(=O)C1CC(=O)N(c2ccc(CC)cc2)C1)c1c(N)n(CCC)c(=O)[nH]c1=O (stereo not given) |  | inactive: 16.5% |
| O=C(CCN1CCN(c2ccccc2)CC1)Nc1ccc2c(c1)OCO2 |  | inactive: 0% |
| O=C(NCCCN1CCOCC1)c1ccc(Sc2cccc(Cl)c2)c([N+](=O)[O-])c1 | active: 20.6 µM |  |
| COc1ccccc1Nc1nc(N)nc(CSC(=S)N2CC(C)CC(C)C2)n1 (stereo not given) | inconclusive: 8.2 µM [cytotoxic, partial curve] |  |
| CCNCCC(CCC(C)C)c1ccc2c(c1)OCO2 (stereo not given) |  | inactive: -19.1% |
| Cc1cccc(N2CCN(Cc3cn(C)nc3-c3ccccc3F)CC2)n1 | inconclusive: 7.31 µM [cytotoxic, partial curve, poor fit] |  |
| O=C(NCC(=O)N1CCN(S(=O)(=O)c2ccccc2)CC1)c1ccc2ccccc2c1 | active: 11.6 µM |  |
| C/C(=N\NC(=O)c1c([N+](=O)[O-])c(C)nn1C)c1ccc(NC(=O)C2CCCC2)cc1 | active: 6.51 µM |  |
| CC(=O)c1c(C)[nH]c(C(=O)OCC(=O)Nc2ccccc2Cl)c1C | active: 4.61 µM |  |
| CC/C(=C/c1ccccc1)c1cc(Oc2ccccc2)cc2oc3ccccc3c12 |  | inactive: -10.2% |
| O=C(Cn1cnc2ccccc2c1=O)NNC(=O)c1ccccc1F | inconclusive: 25.9 µM [rising, single point] |  |
| CC(C)n1c(SCC(=O)NCc2ccco2)nc2c1c(=O)n(C)c(=O)n2C |  | inactive: -20.7% |
| Cc1ccc([N+](=O)[O-])cc1NC(=O)CN(C)CCOc1ccccc1 | inconclusive: 29.1 µM [cytotoxic, single point] |  |
| CCOc1ccc(NC(=O)CN2CCN(c3ccccc3C)CC2)cc1S(=O)(=O)N1CCCC1 | active: 4.11 µM |  |
| Cc1ccc(OCC(=O)Nc2nnc(SCc3cc(=O)c4ccccc4[nH]3)s2)cc1C | inconclusive: 25.9 µM [rising, single point] |  |
| CCOc1ccc(C(=O)NCCCN2CCOCC2)cc1OCC |  | inactive: -3.27% |
| CCCCCCCn1c2c(c(=N)c3c1CCC3)CCCC2 | inconclusive: 20.6 µM [cytotoxic, single point] |  |
| OCCNCC(O)Cn1ccc2ccccc21 (stereo not given) | inconclusive: 0.291 µM [rising, full curve] |  |
| O=C(NCc1ccccn1)c1ccc(Cl)cc1Cl | inconclusive: 29.1 µM [cytotoxic, single point] |  |
| CC(C)OCCCNC(=O)COCC(=O)Nc1ccc(OCCc2ccccc2)cc1 | inconclusive: 29.1 µM [cytotoxic, single point] |  |

| Structure (SMILES) | Potency | activity change, negative = cytotoxicity |
| --- | --- | --- |
| Cc1ccc(C(=O)N2CCN(c3ccccc3)CC2)cc1NC(=O)c1ccco1 | inconclusive: 5.8 µM [cytotoxic, partial curve, poor fit] |  |
| O=C(COC(=O)c1cc2ccccc2cc1O)c1ccccc1 | inconclusive: 23.1 µM [rising, partial curve, poor fit] |  |
| Cn1cccc1C(=O)OCC(=O)NCc1ccc2c(c1)OCO2 |  | inactive: -5.21% |
| O=C(O)c1ccc(CN2C(=O)c3cccc4c([N+](=O)[O-])ccc(c34)C2=O)cc1 | inconclusive: 29.1 µM [cytotoxic, single point] |  |
| c1ccc(Cn2nnc(CNc3ccccc3)c2-c2c(CNc3ccccc3)nnn2Cc2ccccc2)cc1 |  | inactive: -17.5% |
| CC(=O)c1c(C)[nH]c(C(=O)OCC(=O)N2CC(=O)Nc3ccccc32)c1C | inconclusive: 11.6 µM [rising, single point] |  |
| COc1ccc(C(=O)CC(C#N)c2ccc3c(c2)OCO3)cc1OC (stereo not given) | inconclusive: 7.31 µM [cytotoxic, partial curve] |  |
| Cc1cc(/C=C(\C#N)C(=O)NCc2cccs2)c(C)[nH]1 | inconclusive: 16.4 µM [cytotoxic, single point] |  |
| CC(C)CC1NC(=O)N(CC(=O)N2c3ccccc3NC(=O)C2(C)C)C1=O (stereo not given) |  | inactive: 5.11% |
| O=S(=O)(c1ccccc1)N1CCC(O)(CSc2ccc(F)cc2)CC1 | inconclusive: 3.66 µM [cytotoxic, full curve] |  |
| CCCCCCSc1cccc(-c2nc3ccc(Cl)cn3c2NCCCC)c1 | inconclusive: 23.1 µM [cytotoxic, partial curve, poor fit] |  |
| CCOc1ccc(Nc2c(S(=O)(=O)c3ccc(C)cc3)cnc3cc(OC)c(OC)cc23)cc1 | inconclusive: 25.9 µM [cytotoxic, partial curve, poor fit] |  |
| N=C1C(c2ccccc2)=C(O)CN1CCO |  | inactive: 0.119% |
| Cc1ccc(NC(=O)C2CCN(S(=O)(=O)c3ccc4c(c3)CCCC(=O)N4)CC2)c(Cl)c1 | inconclusive: 16.4 µM [cytotoxic, single point] |  |
| CCOC(=O)c1c(NC(=O)CSc2nc3ccccc3s2)sc(C)c1C | active: 13 µM |  |
| Cc1ccc(-c2csc(NC(=O)N3CCOCC3)n2)cc1 | inconclusive: 14.6 µM [cytotoxic, partial curve] |  |
| C=CCn1c(COc2ccc(Cl)cc2)nnc1SCC(=O)N/N=C/c1ccccc1 | inconclusive: 9.2 µM [rising, single point] |  |
| CC(C)(C)c1ccc(OCCCCCCN2CCNCC2)cc1 | inconclusive: 18.4 µM [cytotoxic, single point] |  |
| Cc1cc(C)c(C)c(S(=O)(=O)N2CCC(C(=O)N3CC(C)CC(C)C3)CC2)c1C (stereo not given) | inconclusive: 8.2 µM [cytotoxic, partial curve] |  |
| Cc1ccc(S(=O)(=O)NCc2ccncc2)c(C)c1C | inconclusive: 0.461 µM [cytotoxic, full curve, poor fit] |  |
| CC(C)(C)c1ccc(C(=O)NCCC(=O)Nc2cc(Cl)ccc2N2CCOCC2)cc1 |  | inactive: -9.23% |
| Cc1ccc(NC2=C(N3CCOCC3)C(=O)c3ccccc3C2=O)cc1 | inconclusive: 29.1 µM [cytotoxic, single point] |  |
| COc1ccc(NS(=O)(=O)c2ccc3c(c2)NC(=O)C(C)S3)cc1 (stereo not given) |  | inactive: -2.25% |
| O=C(CC1SC(=O)N(c2ccccc2)C1=O)Nc1ccc(Br)cc1 (stereo not given) | inconclusive: 14.6 µM [rising, partial curve, poor fit] |  |

| Structure (SMILES) | Potency | activity change, negative = cytotoxicity |
| --- | --- | --- |
| Cc1cc(C)c2c(CN3CCN(C)CC3)cc(=O)oc2c1 | inconclusive: 23.1 µM [cytotoxic, partial curve, poor fit] |  |
| O=P(c1ccccc1)(c1ccccc1)c1nc(-c2ccc(Cl)cc2)oc1N1CCOCC1 | inconclusive: 2.91 µM [cytotoxic, partial curve, poor fit] |  |
| CCc1nc2c(OCc3ccc(Cl)cc3Cl)cccn2c1N(C=O)Cc1ccc(OC)cc1 | active: 18.4 µM |  |
| Cc1ccc(CN2CCN(CC(=O)N3CCC(C(N)=O)CC3)C2=O)cc1 | inconclusive: 32.6 µM [rising, single point] |  |
| CC(=O)c1c(NC(=O)C(C)C)nc(C)nc1-c1ccccc1 | inconclusive: 29.1 µM [rising, single point] |  |
| O=C(Nc1ccccn1)c1cc(-c2ccc(Cl)s2)nc2ccccc12 |  | inconclusive: -2.44% |
| CCOC(=O)C(C)n1cnc2c(nnn2-c2ccc(OC)cc2)c1=O (stereo not given) | inconclusive: 16.4 µM [cytotoxic, single point] |  |
| O=C(COc1ccc(Cl)cc1Cl)NC(=S)N1CCCc2ccccc21 | inconclusive: 25.9 µM [cytotoxic, partial curve, poor fit] |  |
| O=C(Nc1ccccc1[N+](=O)[O-])c1cc2ccccc2nc1Cl | inconclusive: 29.1 µM [rising, partial curve, poor fit] |  |
| Cc1[nH]nc2c1C1(CCN(Cc3ccccc3)CC1)C(C#N)=C(N)O2 | inconclusive: 0.731 µM [rising, full curve, poor fit] |  |
| O=[N+]([O-])c1ccc(S(=O)(=O)Nc2ccncc2)cc1 |  | inactive: 6.81% |
| Cc1ccc(-c2noc(-c3ccccc3NC(=O)C3CC(=O)N(c4cccc(C)c4)C3)n2)cc1 (stereo not given) | inconclusive: 9.2 µM [rising, partial curve] |  |
| CCOc1ccc(NC(=O)c2cc(=O)c3cc(CC)ccc3o2)cc1 |  | inactive: 4.99% |
| Cc1cc(C(=O)N/N=C/c2ccc(-c3cccc(Br)c3)o2)n[nH]1 |  | inactive: -0.37% |
| COc1ccc(CCNc2oc(COc3ccccc3Cl)nc2C#N)cc1OC |  | inactive: -13.1% |
| [O-]/[N+](=C\c1ccco1)c1ccc(Cl)cc1 |  | inactive: 8.77% |
| Cc1ccc(-c2nn(-c3ccccc3)cc2C=O)o1 |  | inactive: -8.89% |
| CCOC(=O)c1c(C)[nH]c(C(=O)COC(=O)c2ccccn2)c1C | inconclusive: 7.31 µM [cytotoxic, partial curve] |  |
| CCOC(=O)Cn1c(=O)oc2cc(S(=O)(=O)Nc3ccc(F)cc3)ccc21 |  | inactive: 7.76% |
| CCc1ccccc1N(CC(=O)NC1CCCC1)C(=O)CNC(=O)c1cccs1 | inconclusive: 4.61 µM [cytotoxic, partial curve] |  |
| COc1cc(NC(=O)Cn2nc(C(F)(F)F)c(Br)c2C)cc([N+](=O)[O-])c1 | active: 18.4 µM |  |
| CCOC(=O)C(NC(=O)Nc1ccc(F)cc1F)(Oc1ccc(F)cc1)C(F)(F)F (stereo not given) | inconclusive: 16.4 µM [rising, partial curve, poor fit] |  |

Not a retest: three of the compounds above.

| Structure (SMILES) | Potency | activity change, negative = cytotoxicity |
| --- | --- | --- |
| Cc1cc(C)c2c(CN3CCN(C)CC3)cc(=O)oc2c1 | inconclusive: 23.1 µM [cytotoxic, partial curve, poor fit] |  |
| O=P(c1ccccc1)(c1ccccc1)c1nc(-c2ccc(Cl)cc2)oc1N1CCOCC1 | inconclusive: 2.91 µM [cytotoxic, partial curve, poor fit] |  |
| CCc1nc2c(OCc3ccc(Cl)cc3Cl)cccn2c1N(C=O)Cc1ccc(OC)cc1 | active: 18.4 µM |  |
